Consider one sequence from paper PMC11975286, “Functional dissection of the conserved C. elegans LEM-3/ANKLE1 nuclease reveals a crucial requirement for the LEM-like and GIY-YIG domains for DNA bridge processing”.

The exact form of at least one protein or probe is not confirmed. Protein sequences can lack the tags named with them.

In this data set the target is T1, LEM-3(241-704) (Caenorhabditis elegans) (UniProt G5EGA3).
T1 sequence (looked up): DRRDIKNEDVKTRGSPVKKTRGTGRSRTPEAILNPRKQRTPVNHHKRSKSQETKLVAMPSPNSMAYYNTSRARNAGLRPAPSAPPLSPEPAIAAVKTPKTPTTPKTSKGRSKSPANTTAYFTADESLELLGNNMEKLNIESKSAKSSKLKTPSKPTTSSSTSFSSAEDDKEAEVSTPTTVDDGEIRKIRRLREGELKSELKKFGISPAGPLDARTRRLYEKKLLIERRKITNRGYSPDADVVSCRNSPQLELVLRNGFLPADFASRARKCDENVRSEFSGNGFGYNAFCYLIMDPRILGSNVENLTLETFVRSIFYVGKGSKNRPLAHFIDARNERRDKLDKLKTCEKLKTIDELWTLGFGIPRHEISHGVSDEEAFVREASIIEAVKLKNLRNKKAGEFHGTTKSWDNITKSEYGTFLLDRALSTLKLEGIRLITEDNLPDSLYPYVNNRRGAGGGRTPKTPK
Description: competition with a labelled probe. The following applies: unlabelled HJ gradually reduces shift of HJ-X0-1, 10 mM Tris-HCl pH 7.5, 100 mM NaCl, 5% glycerol, 5 ng/ul poly(dI-dC), 4 C, 1 h, 8.3 nM HJ-X0-1 (0.13 nM for Kd), 6% native PAGE, 0.5x TBE, recombinant protein, residues 241-704, folded or branched DNA.

Turning to “ACGCTGCCGAATTCTACCAGTGCCTTGCTAGGACATCTTTGCCCACCTGCAGGTTCACCC / GGGTGAACCTGCAGGTGGGCAAAGATGTCCATCTGTTGTAATCGTCAAGCTTTATGCCGT / ACGGCATAAAGCTTGACGATTACAACAGATCATGGAGCTGTCTAGAGGATCCGACTATCG / CGATAGTCGGATCCTCTAGACAGCTCCATGTAGCAAGGCACTGGTAGAATTCGGCAGCGT [unlabelled HJ competitor]”, the binding result is “binds”.
